Experimental data taken from patent publication US20230340142A1 (SUZHOU NEOLOGICS BIOSCIENCE, published 2023).
No constants are given. Whether binding was seen depends on the method and setting. Some results given as binding are weak or reduced against the parent protein; the word gives no strength.

Chains of the proteins cited; added tags and fusions are not shown. Lines headed by an entry give the natural chain unless they say otherwise; changes in a name come on top.
UniProt Q9NZQ7: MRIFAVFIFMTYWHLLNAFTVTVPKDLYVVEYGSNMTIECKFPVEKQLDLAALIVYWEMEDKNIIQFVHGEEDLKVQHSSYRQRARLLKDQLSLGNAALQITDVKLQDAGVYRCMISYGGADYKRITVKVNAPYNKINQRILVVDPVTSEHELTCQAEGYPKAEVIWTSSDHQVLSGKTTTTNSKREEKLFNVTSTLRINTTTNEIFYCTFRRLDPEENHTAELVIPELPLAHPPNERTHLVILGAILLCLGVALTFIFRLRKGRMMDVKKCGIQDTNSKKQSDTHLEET

What was measured:
[1] = target: T1, human PD-L1 (human, UniProt Q9NZQ7 19-238, limits assumed); assay: flow cytometry on A375 cells (PD-L1 on the cell surface), PE-labelled secondary antibody, MFI
T1 construct: also called hPD-L1

[2] = target: T1, human PD-L1; assay: flow cytometry on RKO cells (PD-L1 on the cell surface), PE-labelled secondary antibody, MFI
Protocol: (§1) Glycosylation differences in cancer cell lines of different tissue origin may affect the binding affinity between PD-L1 antibody and PD-L1. In this study, five cell lines were selected, namely BT20(Breast), mb-231 (Breast), A375(Melanoma), HCC827(Lung), and RKO(Colon). Cells were re-suspended with FACS buffer (1%BSA in PBS), and 50 µl cell suspension per well was added to the 96-well U-bottom plate (Corning, catalog#3795). The purified antibody to be tested was diluted in gradient, then 50 µl was added to each well and incubated at 4° C. for 1 hour. After washing by FACS buffer for three times, the cells were incubated with PE-labeled fluorescent secondary antibody and incubated at 4° C. for half an hour. Cells were washed three times with FACS buffer and resuspended to 200 uL/ well. The fluorescence signal was detected using Canto II flow cytometry (BD).

[3] = target: T1, human PD-L1; assay: flow cytometry on BT20 cells (PD-L1 on the cell surface), PE-labelled secondary antibody, MFI
Protocol: as §1

[4] = target: T1, human PD-L1; assay: flow cytometry on HCC827 cells (PD-L1 on the cell surface), PE-labelled secondary antibody, MFI
Protocol: as §1

[5] = target: T1, human PD-L1; assay: flow cytometry on MDA-MB-231 cells (PD-L1 on the cell surface), PE-labelled secondary antibody, MFI
Protocol: as §1

Measured: binding

B1: Clone D (antibody, V domains shown)
VH: EVQLQQSGPELVKPGASMKISCKASGYSFTGYTMNWVKQSHGKNLEWIGLIIPYNGGISYNQKFKDKATLTVDKSSSTAYMELLSLTSEDSAVYYCASLITTAPRDSMDYWGQGTSVTVSS
VL: DIQMTQTTSSLSASLGDRVTISCRASQDISNYLNWYQQKPDGSVKLLIYYTSKLHSGVPSRFSGSGSGTDYSLTISNLEQEDIATYFCQQGDALPWTFGGGTKLEIK
notes: Mouse hybridoma clone
binds: all assays above

B2: Clone N (antibody, V domains shown)
VH: EVQLQQSGPELVKPGASMKISCKASGYSFTGYTMNWVKQSHGKNLEWIGLIIPHNGGTSYNQKFKDKATLTVDKSSRTAYMELLSLTSEDSAVYYCASLMTTAPRDSMDYWGQGTSVTVSS
VL: DIQMTQTTSSLSASLGDRVTISCRASQDISNYLNWYQQKPDGTVKLLIYYTSRLHSGVPSRFSGSGSGTDYSLTISNLDQEDIATYFCQQGATLPWTFGGGTKLEIK
notes: Mouse hybridoma clone
binds: all assays above

B3: Clone B (antibody, V domains shown)
VH: QGQMQQSGAELVKPGASVKLSCKTSGFTFSSSYISWLKQKPGQSLEWIAWIYAGTGGTSYNQKFTGKAQLTVDTPSSTAYMQFSSLTTEDSAIYYCARHEGKYWYFDVWGAGTTVTVSS
VL: QILLTQSPAIMSASPGEKVTMTCSASSSVSYVHWYQQKPGSSPKPWIYDTSNLASGFPARFSGSGSGTSYSLIISSMEAEDAATYYCHQRSSYPWTFGGGTKLEIK
notes: Mouse hybridoma clone
binds: all assays above

B4: Clone C (antibody, V domains shown)
VH: EVQLQQSGADLVKPGASVKLSCTASGFNIKDTYMHWVKQRPEQGLEWIGRIDPANGNTKYDPKFQGKATITTDTSSNTAYLQLSSLTSEDTAVYYCARGLGRWFAYWGQGTLVTVSA
VL: DIVMTQSHKFMSTSVGDRVSITCKASQDVSNAVAWYQQKPGQSPELLIYSASNRYTGVPDRFTGSGSGTDFTFTISSVQAEDLAVYYCQQHDSTPLTFGAGTKLELK
notes: Mouse hybridoma clone
binds: all assays above
